Some of the results follow.
How the values were obtained:
Test in all cases: log2 fold change, soluble protein after heating vs DMSO (PISA); higher = thermal stabilisation; K562 lysate, 10 uM; active = over 0.2 and 3.5 SD of the protein, either way, in both replicates (recomputed)
alvocidib = compound: CN1CC[C@H](c2c(O)cc(O)c3c(=O)cc(-c4ccccc4Cl)oc23)[C@H](O)C1 [alvocidib]
Summary of the method: (§1)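 Quantification was by TMTpro 16plex LC-MS/MS with equalised channel sums, applied to the supernatant after 21,000xg for 90 min. Samples were crude K562 extract at 1 mg/mL protein in PBS pH 7.4 with 1 mM MgCl2, treated with 10 μM compound for 30 min, heated for 3 min across 48°C-58°C, pooled and brought to 0.5% NP-40 at 4°C. Values are log-two fold changes in thermal stability relative to solvent controls, from duplicates.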

Sequences of proteins named here, by UniProt entry; tags and fusion partners are left off. A change or cut given only in a name is not applied to a line headed by its entry.
UniProt Q96LB3: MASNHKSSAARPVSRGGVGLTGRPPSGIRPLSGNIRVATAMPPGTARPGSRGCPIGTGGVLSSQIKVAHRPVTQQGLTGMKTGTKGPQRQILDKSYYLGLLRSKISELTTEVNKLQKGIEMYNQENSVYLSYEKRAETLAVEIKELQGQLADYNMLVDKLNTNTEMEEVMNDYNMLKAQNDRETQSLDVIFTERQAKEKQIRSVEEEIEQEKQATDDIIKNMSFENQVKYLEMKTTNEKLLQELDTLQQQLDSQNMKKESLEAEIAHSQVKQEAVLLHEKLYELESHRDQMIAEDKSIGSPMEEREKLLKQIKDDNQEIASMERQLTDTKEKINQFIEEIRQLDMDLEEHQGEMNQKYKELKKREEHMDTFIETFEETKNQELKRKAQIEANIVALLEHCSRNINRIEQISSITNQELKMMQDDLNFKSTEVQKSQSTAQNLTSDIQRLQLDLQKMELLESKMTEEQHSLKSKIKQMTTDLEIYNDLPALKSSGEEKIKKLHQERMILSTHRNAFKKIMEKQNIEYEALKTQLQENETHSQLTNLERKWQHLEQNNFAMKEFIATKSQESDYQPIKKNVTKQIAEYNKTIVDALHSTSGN
UniProt O43464: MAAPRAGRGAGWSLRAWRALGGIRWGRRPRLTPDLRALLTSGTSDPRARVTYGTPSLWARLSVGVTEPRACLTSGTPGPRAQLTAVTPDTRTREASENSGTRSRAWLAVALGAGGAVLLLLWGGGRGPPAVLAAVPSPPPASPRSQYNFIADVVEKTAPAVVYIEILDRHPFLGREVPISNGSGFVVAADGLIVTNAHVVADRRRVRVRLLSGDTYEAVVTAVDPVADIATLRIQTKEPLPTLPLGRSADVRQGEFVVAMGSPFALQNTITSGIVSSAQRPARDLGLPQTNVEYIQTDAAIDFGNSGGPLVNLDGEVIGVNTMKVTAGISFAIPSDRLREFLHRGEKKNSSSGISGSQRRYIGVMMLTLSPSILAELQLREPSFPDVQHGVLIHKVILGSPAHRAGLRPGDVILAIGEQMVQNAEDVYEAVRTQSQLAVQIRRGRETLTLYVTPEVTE
UniProt P42858, whole entry, looked up: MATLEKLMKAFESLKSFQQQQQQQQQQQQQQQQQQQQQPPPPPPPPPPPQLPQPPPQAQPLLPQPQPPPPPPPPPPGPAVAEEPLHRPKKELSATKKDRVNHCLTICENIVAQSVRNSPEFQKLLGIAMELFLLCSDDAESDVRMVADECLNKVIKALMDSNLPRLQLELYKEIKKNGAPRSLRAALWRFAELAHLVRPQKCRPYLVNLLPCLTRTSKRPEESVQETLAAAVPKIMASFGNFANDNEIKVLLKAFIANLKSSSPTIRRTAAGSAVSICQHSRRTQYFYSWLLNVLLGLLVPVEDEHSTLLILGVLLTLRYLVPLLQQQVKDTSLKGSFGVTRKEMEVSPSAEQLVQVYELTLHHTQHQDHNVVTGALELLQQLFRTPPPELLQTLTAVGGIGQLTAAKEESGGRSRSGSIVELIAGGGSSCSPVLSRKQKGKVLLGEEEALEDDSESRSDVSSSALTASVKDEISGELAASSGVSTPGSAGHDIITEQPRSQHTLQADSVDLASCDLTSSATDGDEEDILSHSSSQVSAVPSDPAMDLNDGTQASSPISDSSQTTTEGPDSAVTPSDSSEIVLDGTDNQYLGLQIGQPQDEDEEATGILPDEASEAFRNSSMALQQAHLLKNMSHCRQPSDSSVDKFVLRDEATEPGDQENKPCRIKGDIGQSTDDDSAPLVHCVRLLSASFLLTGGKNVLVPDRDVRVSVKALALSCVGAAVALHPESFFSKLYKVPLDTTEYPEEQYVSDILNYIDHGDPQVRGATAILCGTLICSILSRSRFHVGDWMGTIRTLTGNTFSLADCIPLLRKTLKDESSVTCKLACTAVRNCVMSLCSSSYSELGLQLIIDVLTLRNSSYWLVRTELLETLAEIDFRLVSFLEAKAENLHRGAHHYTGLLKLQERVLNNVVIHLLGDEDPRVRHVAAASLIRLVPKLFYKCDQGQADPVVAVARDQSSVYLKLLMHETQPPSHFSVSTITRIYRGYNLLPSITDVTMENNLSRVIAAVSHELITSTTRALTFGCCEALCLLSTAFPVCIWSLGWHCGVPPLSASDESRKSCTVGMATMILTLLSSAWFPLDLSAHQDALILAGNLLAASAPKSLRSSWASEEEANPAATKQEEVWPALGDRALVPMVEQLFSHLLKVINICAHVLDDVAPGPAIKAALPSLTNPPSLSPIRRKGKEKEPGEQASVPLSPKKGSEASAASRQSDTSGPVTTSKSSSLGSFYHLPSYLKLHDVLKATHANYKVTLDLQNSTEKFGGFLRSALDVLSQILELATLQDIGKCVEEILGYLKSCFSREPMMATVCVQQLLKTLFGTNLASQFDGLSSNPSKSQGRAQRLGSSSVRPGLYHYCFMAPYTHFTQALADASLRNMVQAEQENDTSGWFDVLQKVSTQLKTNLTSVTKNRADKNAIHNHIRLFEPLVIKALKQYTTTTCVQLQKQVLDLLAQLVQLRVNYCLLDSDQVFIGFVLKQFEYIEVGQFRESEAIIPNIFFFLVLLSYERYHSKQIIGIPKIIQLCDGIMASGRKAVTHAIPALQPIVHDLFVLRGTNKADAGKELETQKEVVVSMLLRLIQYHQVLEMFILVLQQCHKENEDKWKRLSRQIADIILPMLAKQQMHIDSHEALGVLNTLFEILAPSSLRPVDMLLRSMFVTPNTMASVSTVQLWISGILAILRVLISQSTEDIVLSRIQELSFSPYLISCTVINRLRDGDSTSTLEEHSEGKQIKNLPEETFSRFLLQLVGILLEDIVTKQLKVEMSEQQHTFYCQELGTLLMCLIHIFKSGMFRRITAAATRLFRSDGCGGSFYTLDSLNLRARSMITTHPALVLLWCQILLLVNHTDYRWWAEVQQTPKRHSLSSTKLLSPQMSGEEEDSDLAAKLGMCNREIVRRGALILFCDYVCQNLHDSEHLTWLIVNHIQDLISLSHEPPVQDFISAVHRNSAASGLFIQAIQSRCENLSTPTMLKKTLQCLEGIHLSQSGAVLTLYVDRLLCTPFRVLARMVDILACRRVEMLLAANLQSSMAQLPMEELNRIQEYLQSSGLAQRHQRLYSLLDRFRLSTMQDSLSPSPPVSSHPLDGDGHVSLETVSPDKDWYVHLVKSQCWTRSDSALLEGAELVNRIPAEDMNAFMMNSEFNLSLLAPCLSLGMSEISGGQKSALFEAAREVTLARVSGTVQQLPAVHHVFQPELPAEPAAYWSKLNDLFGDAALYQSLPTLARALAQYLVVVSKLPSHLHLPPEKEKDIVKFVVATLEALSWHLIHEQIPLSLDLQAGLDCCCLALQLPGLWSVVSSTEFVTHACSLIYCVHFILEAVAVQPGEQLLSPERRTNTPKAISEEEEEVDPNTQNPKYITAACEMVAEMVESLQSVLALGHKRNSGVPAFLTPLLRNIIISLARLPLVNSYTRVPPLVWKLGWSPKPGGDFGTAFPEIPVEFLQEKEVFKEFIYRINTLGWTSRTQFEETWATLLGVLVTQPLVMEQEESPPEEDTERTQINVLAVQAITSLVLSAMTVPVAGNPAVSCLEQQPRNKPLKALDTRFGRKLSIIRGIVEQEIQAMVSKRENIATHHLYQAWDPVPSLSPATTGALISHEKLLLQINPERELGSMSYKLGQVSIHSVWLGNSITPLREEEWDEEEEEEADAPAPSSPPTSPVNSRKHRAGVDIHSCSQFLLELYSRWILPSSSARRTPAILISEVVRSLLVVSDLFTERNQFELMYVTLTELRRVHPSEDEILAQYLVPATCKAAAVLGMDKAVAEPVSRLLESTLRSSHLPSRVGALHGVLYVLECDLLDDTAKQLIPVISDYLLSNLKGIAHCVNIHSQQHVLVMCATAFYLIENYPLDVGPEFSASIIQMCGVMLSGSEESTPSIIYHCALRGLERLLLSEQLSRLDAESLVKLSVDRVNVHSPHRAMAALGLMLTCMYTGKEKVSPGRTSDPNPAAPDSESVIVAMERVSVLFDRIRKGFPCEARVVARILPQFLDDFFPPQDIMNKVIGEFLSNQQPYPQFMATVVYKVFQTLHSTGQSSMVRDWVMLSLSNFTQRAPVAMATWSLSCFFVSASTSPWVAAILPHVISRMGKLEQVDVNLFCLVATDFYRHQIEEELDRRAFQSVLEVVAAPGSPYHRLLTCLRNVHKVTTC
UniProt Q9H6K1: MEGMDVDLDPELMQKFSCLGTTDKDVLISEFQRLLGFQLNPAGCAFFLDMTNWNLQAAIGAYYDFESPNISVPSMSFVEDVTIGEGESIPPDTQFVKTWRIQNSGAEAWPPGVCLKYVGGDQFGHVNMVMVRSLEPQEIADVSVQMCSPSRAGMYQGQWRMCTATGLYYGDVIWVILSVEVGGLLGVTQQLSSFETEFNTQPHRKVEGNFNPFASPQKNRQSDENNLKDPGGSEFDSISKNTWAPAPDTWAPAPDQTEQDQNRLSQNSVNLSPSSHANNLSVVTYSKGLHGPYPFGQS
UniProt Q14642: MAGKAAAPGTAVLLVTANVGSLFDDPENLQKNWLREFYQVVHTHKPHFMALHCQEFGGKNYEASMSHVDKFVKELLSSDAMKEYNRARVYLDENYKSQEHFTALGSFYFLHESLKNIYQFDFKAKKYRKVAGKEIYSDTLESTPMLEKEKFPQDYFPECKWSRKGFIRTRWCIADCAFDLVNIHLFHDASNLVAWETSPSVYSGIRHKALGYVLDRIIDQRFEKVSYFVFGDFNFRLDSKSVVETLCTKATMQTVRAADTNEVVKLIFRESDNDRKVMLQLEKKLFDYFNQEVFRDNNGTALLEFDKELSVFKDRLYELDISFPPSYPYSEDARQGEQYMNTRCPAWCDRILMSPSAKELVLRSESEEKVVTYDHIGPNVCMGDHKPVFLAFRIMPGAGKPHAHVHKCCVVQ
UniProt Q9UK53: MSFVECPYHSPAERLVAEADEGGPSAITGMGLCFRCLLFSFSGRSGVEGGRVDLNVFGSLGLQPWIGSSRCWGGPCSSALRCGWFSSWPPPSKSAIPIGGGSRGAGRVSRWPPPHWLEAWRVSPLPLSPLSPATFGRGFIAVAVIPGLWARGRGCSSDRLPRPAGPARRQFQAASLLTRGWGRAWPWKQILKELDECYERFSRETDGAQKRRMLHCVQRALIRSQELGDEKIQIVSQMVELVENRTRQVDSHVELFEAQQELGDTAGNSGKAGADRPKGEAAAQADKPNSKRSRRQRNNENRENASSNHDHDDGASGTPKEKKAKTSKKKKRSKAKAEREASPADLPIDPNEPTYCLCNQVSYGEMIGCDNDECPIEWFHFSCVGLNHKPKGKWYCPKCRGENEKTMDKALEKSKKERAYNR
UniProt Q14116, whole entry, looked up: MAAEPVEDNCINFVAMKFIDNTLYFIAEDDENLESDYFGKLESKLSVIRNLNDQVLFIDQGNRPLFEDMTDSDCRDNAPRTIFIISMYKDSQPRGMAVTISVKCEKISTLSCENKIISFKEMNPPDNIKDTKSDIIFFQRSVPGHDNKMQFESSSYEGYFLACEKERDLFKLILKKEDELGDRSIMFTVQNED
UniProt P22692: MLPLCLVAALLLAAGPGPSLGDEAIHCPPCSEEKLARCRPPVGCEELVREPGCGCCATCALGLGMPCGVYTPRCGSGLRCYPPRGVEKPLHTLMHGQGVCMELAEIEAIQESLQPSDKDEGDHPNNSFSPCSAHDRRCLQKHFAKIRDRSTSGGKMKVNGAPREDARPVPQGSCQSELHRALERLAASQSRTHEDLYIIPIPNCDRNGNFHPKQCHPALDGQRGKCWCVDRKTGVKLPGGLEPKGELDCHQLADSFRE
UniProt O43719: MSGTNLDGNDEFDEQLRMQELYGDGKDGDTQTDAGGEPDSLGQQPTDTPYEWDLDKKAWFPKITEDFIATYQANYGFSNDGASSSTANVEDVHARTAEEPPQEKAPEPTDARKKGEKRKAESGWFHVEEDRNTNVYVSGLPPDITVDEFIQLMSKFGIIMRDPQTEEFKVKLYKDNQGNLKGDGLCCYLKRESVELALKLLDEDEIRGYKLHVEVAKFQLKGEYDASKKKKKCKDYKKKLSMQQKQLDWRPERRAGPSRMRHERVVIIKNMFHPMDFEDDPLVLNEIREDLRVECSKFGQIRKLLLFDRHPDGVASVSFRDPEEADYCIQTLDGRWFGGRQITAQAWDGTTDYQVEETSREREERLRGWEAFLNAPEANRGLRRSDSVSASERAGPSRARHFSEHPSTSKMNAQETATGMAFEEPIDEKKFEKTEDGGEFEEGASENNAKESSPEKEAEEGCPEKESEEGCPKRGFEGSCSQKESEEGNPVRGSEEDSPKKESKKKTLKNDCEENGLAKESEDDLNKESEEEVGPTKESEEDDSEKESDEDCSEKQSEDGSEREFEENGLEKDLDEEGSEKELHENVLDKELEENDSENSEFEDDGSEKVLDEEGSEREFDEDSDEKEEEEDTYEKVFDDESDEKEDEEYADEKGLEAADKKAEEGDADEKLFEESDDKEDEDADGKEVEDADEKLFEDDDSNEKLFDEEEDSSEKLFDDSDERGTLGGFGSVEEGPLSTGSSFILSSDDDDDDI

Tubastatin A = compound: CN1CCc2c(c3ccccc3n2Cc2ccc(C(=O)NO)cc2)C1 [Tubastatin A]
Summary of the method: as §1

[1] = compound: CNC(=O)C1=CC=CC=C1NC2=NC(=NC=C2Cl)NC3=C(C=C(C=C3)N4CCOCC4)OC
Summary of the method: as §1

defactinib = compound: CNC(=O)c1ccc(Nc2ncc(C(F)(F)F)c(NCc3nccnc3N(C)S(C)(=O)=O)n2)cc1 [defactinib]
Summary of the method: as §1

[2] = compound: CNc1nc(-c2ccc3c(N)n[nH]c3c2)cc(N2C[C@@H](C(=O)NC3CCCCC3)CC[C@H]2C)n1
Summary of the method: as §1

encorafenib = compound: COC(=O)N[C@@H](C)CNc1nccc(-c2cn(C(C)C)nc2-c2cc(Cl)cc(NS(C)(=O)=O)c2F)n1 [encorafenib]
Summary of the method: as §1

[3] = compound: COC(=O)[C@H](CCSC)NC(=O)C1=C(C=C(C=C1)NC[C@H](CS)N)C2=CC=CC=C2
Summary of the method: as §1

alisertib = compound: COc1cc(Nc2ncc3c(n2)-c2ccc(Cl)cc2C(c2c(F)cccc2OC)=NC3)ccc1C(=O)O [alisertib]
Summary of the method: as §1

[4] = compound: COc1cc2nc(-c3cc(F)ccc3O)nc(N[C@@H]3CNC[C@H]3C(C)(C)O)c2cc1OC
Summary of the method: as §1

gefitinib = compound: COc1cc2ncnc(Nc3ccc(F)c(Cl)c3)c2cc1OCCCN1CCOCC1 [gefitinib]
Summary of the method: as §1

lapatinib = compound: CS(=O)(=O)CCNCc1ccc(-c2ccc3ncnc(Nc4ccc(OCc5cccc(F)c5)c(Cl)c4)c3c2)o1 [lapatinib]
Summary of the method: as §1

pictilisib = compound: CS(=O)(=O)N1CCN(Cc2cc3nc(-c4cccc5[nH]ncc45)nc(N4CCOCC4)c3s2)CC1 [pictilisib]
Summary of the method: as §1

crizotinib = compound: C[C@@H](Oc1cc(-c2cnn(C3CCNCC3)c2)cnc1N)c1c(Cl)ccc(F)c1Cl [crizotinib]
Summary of the method: as §1

[5] = compound: C[C@H](C1=CC=C(C=C1)C(=O)NC2=C3C=CNC3=NC=C2)N
Summary of the method: as §1

duvelisib = compound: C[C@H](Nc1ncnc2nc[nH]c12)c1cc2cccc(Cl)c2c(=O)n1-c1ccccc1 [duvelisib]
Summary of the method: as §1

gandotinib = compound: Cc1cc(Nc2cc(CN3CCOCC3)c3nc(C)c(Cc4ccc(Cl)cc4F)n3n2)n[nH]1 [gandotinib]
Summary of the method: as §1

tozasertib = compound: Cc1cc(Nc2cc(N3CCN(C)CC3)nc(Sc3ccc(NC(=O)C4CC4)cc3)n2)n[nH]1 [tozasertib]
Summary of the method: as §1

doramapimod = compound: Cc1ccc(-n2nc(C(C)(C)C)cc2NC(=O)Nc2ccc(OCCN3CCOCC3)c3ccccc23)cc1 [doramapimod]
Summary of the method: as §1

bafetinib = compound: Cc1ccc(NC(=O)c2ccc(CN3CC[C@H](N(C)C)C3)c(C(F)(F)F)c2)cc1Nc1nccc(-c2cncnc2)n1 [bafetinib]
Summary of the method: as §1

[6] = compound: Cc1cccc(CC(=O)N2CCc3c2ccc(-c2cn(C)c4ncnc(N)c24)c3F)n1
Summary of the method: as §1

Target	log2 fold change (alvocidib)	log2 fold change (Tubastatin A)	log2 fold change [1]	log2 fold change (defactinib)	log2 fold change [2]	log2 fold change (encorafenib)	log2 fold change [3]	log2 fold change (alisertib)	log2 fold change [4]	log2 fold change (gefitinib)	log2 fold change (lapatinib)	log2 fold change (pictilisib)	log2 fold change (crizotinib)	log2 fold change [5]	log2 fold change (duvelisib)	log2 fold change (gandotinib)	log2 fold change (tozasertib)	log2 fold change (doramapimod)	log2 fold change (bafetinib)	log2 fold change [6]
IGF2R (UniProt P11717)	inactive: -0.053	inactive: 0.01	inactive: -0.001	inactive: 0.004	inactive: -0.029	inactive: 0.03	inactive: -0.062	inactive: -0.008	inactive: 0.01	inactive: 0.039	inactive: 0.007	inactive: -0.014	inactive: 0.042	inactive: -0.043	inactive: 0.003	inactive: 0.045	inactive: 0.008	inactive: -0.008	inactive: 0.065	inactive: 0.029
IFT74 (UniProt Q96LB3)	inactive: -0.047	inactive: 0.063	inactive: -0.024	inactive: -0.017	inactive: 0.208	inactive: 0.035	inactive: 0.03	inactive: 0.03	inactive: 0.13	inactive: -0.071	inactive: -0.018	inactive: 0.011	inactive: -0.071	inactive: -0.171	inactive: 0.05	inactive: 0.221	inactive: 0.014	inactive: -0.001	inactive: -0.028	inactive: 0.177
ICAM2 (UniProt P13598)	inactive: 0.078	inactive: 0.017	inactive: 0.032	inactive: 0.039	inactive: -0.019	inactive: -0.026	inactive: -0.065	inactive: -0.016	inactive: 0.009	inactive: -0.02	inactive: -0.008	inactive: -0.08	inactive: -0.002	active: 0.293	inactive: -0.035	inactive: -0.04	inactive: -0.01	inactive: -0.014	inactive: 0.013	inactive: -0.075
IFT20 isoform 2 (UniProt Q8IY31)	inactive: -0.047	inactive: 0.035	inactive: 0.094	inactive: 0.123	inactive: 0.007	inactive: 0.081	inactive: -0.239	inactive: 0.019	inactive: 0.005	inactive: -0.219	inactive: -0.013	inactive: 0.116	inactive: 0.04	inactive: 0.032	inactive: -0.016	inactive: -0.1	inactive: -0.01	inactive: -0.029	inactive: 0.022	inactive: 0.003
HTRA2 (UniProt O43464)	inactive: -0.034	inactive: 0.049	inactive: 0	inactive: 0.018	inactive: 0.055	inactive: -0.019	inactive: -0.045	inactive: 0.002	inactive: 0.033	inactive: -0.003	inactive: -0.028	inactive: -0.021	inactive: -0.023	inactive: -0.064	inactive: -0.012	inactive: 0.058	inactive: 0.019	inactive: 0.008	inactive: -0.026	inactive: 0.047
ICAM4 isoform 3 (UniProt Q14773)	inactive: 0.024	inactive: 0.183	inactive: -0.078	inactive: 0.004	inactive: 0.472	inactive: 0.312	inactive: -0.022	–	–	–	–	inactive: -0.062	–	inactive: -0.003	inactive: 0.039	inactive: -0.013	inactive: -0.001	–	inactive: 0.004	inactive: 0.037
IL27RA (UniProt Q6UWB1)	inactive: -0.058	inactive: -0.023	inactive: 0.128	–	inactive: -0.086	inactive: 0.03	inactive: 0.006	inactive: -0.109	inactive: 0.069	inactive: 0.062	inactive: 0.039	inactive: -0.052	inactive: 0.026	inactive: -0.017	inactive: 0	inactive: 0.031	inactive: 0.121	inactive: -0.074	inactive: 0.036	inactive: 0.075
IGLL5 (UniProt B9A064)	inactive: 0	inactive: 1.23	inactive: 0.153	inactive: -0.043	–	inactive: -0.099	inactive: -0.005	–	inactive: 0.053	–	inactive: -0.058	–	inactive: 0.262	inactive: 0.123	–	inactive: -0.051	inactive: 0.88	inactive: 0.101	–	inactive: 0.483
HTT (UniProt P42858)	inactive: 0	inactive: -0.195	inactive: 0.022	inactive: 0.048	inactive: -0.043	inactive: 0.008	inactive: -0.003	inactive: -0.005	–	inactive: -0.032	–	inactive: -0.028	inactive: -0.042	inactive: -0.012	inactive: -0.016	inactive: -0.124	inactive: 0.002	inactive: 0.006	inactive: -0.112	inactive: 0.094
IKZF1 (UniProt Q13422)	inactive: 0.025	inactive: -0.005	inactive: 0.059	inactive: 0.029	inactive: 0.014	inactive: 0.004	inactive: -0.004	inactive: 0.093	inactive: -0.053	inactive: -0.006	inactive: 0.018	inactive: -0.114	inactive: 0.068	inactive: 0.03	inactive: 0.001	inactive: -0.089	inactive: -0.058	inactive: -0.022	inactive: 0	inactive: -0.162
ILRUN (UniProt Q9H6K1)	inactive: 0.031	inactive: -0.059	inactive: 0.047	inactive: -0.01	inactive: -0.004	inactive: 0.052	inactive: -0.03	inactive: 0.123	inactive: 0.056	inactive: 0.115	inactive: -0.045	inactive: -0.033	inactive: 0.009	inactive: -0.025	inactive: 0.016	inactive: 0.012	inactive: 0.013	inactive: -0.028	inactive: -0.023	inactive: -0.017
INPP5A (UniProt Q14642)	inactive: -0.029	inactive: -0.067	inactive: -0.05	inactive: -0.079	inactive: -0.14	inactive: 0.032	inactive: 0.135	–	–	–	–	inactive: -0.089	–	inactive: -0.289	inactive: -0.041	inactive: 0.025	inactive: -0.197	–	inactive: -0.131	inactive: 0.115
IGHG1 (UniProt P01857)	inactive: -0.079	inactive: 0.542	inactive: 0.221	inactive: 0.05	inactive: -0.132	–	–	inactive: -0.065	–	inactive: 0.354	–	inactive: 0.622	inactive: 0.376	inactive: 0.454	inactive: -0.022	inactive: 0.43	–	inactive: 0.413	inactive: -0.305	inactive: 0.199
ING1 (UniProt Q9UK53)	inactive: 0.019	inactive: 0.025	inactive: 0.04	–	inactive: -0.025	–	–	–	–	–	–	inactive: -0.315	inactive: 0.035	inactive: -0.13	inactive: 0.048	inactive: 0.13	–	inactive: -0.079	inactive: 0.003	inactive: 0.027
IL18 (UniProt Q14116)	inactive: -0.011	inactive: 0.018	inactive: -0.043	inactive: -0.044	inactive: -0.028	inactive: -0.1	inactive: -0.066	inactive: -0.058	inactive: 0.035	inactive: 0.043	inactive: -0.019	inactive: 0.005	inactive: 0	inactive: -0.073	inactive: -0.009	inactive: 0.058	inactive: -0.011	inactive: -0.025	inactive: -0.012	inactive: 0.028
HSPA8 (UniProt E9PN89)	inactive: -0.248	inactive: 0.066	inactive: -0.074	–	inactive: -0.075	inactive: 0.088	inactive: 0.035	inactive: 0.11	inactive: 0.013	inactive: 0.076	inactive: 0.046	inactive: 0.05	inactive: -0.31	active: -0.706	inactive: 0.004	inactive: 0.169	inactive: 0.074	inactive: 0.314	inactive: -0.021	inactive: 0.299
IGFBP4 (UniProt P22692)	inactive: -0.149	inactive: -0.083	inactive: 0.045	–	inactive: -0.084	–	–	inactive: -0.005	active: 0.454	inactive: 0.005	inactive: -0.007	inactive: 0.015	inactive: -0.042	inactive: 0	inactive: -0.029	inactive: 0.019	–	inactive: 0.014	inactive: -0.149	inactive: 0.095
HTATSF1 (UniProt O43719)	inactive: -0.037	inactive: -0.025	inactive: -0.018	inactive: 0.004	inactive: -0.053	inactive: 0.017	inactive: 0.011	inactive: -0.009	inactive: -0.013	inactive: -0.011	inactive: 0.003	inactive: 0.03	inactive: 0.006	inactive: -0.02	inactive: 0.007	inactive: -0.018	inactive: 0.026	inactive: 0.01	inactive: 0.006	inactive: 0.032

2 entries from above in a different format.
Target | log2 fold change (alvocidib) | log2 fold change (Tubastatin A) | log2 fold change [1] | log2 fold change (defactinib) | log2 fold change [2] | log2 fold change (encorafenib) | log2 fold change [3] | log2 fold change (alisertib) | log2 fold change [4] | log2 fold change (gefitinib) | log2 fold change (lapatinib) | log2 fold change (pictilisib) | log2 fold change (crizotinib) | log2 fold change [5] | log2 fold change (duvelisib) | log2 fold change (gandotinib) | log2 fold change (tozasertib) | log2 fold change (doramapimod) | log2 fold change (bafetinib) | log2 fold change [6]
IL18 (UniProt Q14116) | inactive: -0.011 | inactive: 0.018 | inactive: -0.043 | inactive: -0.044 | inactive: -0.028 | inactive: -0.1 | inactive: -0.066 | inactive: -0.058 | inactive: 0.035 | inactive: 0.043 | inactive: -0.019 | inactive: 0.005 | inactive: 0 | inactive: -0.073 | inactive: -0.009 | inactive: 0.058 | inactive: -0.011 | inactive: -0.025 | inactive: -0.012 | inactive: 0.028
HSPA8 (UniProt E9PN89) | inactive: -0.248 | inactive: 0.066 | inactive: -0.074 | – | inactive: -0.075 | inactive: 0.088 | inactive: 0.035 | inactive: 0.11 | inactive: 0.013 | inactive: 0.076 | inactive: 0.046 | inactive: 0.05 | inactive: -0.31 | active: -0.706 | inactive: 0.004 | inactive: 0.169 | inactive: 0.074 | inactive: 0.314 | inactive: -0.021 | inactive: 0.299

Reference: the supplement of paper PMC10849652
